{"source": "paper PMC12040169", "about": "(PLOS Biology, 2025)", "note": "This is one part of the list.", "data": [{"tested_on": "T1, CTL2-GFP (C. trachomatis L2/434/Bu, GFP-expressing)", "T1 construct": "L2/434/Bu, GFP-expressing", "parameters": "species or system HeLa; Intracellular C. trachomatis growth in HeLa cells, bulk GFP fluorescence relative to DMSO", "conditions": "bulk GFP, single well; 28.5 h, 10 µM; inhibitor", "units": {"% of control remaining": "%"}, "values": [{"smiles": "COc1cccc(-c2ccc(NC(=O)CCC3C(=O)Nc4ccccc43)cc2)c1", "note": "(centres unmarked) [CBK285851]", "% of control remaining": 98.4017}, {"smiles": "C/C(=N/OCC(=O)N/N=C/c1sc2ccccc2c1O)c1ccccc1", "note": "[CBK262266]", "% of control remaining": 126.121}, {"smiles": "Cc1nc(C2CCCN(C(=O)c3cscn3)C2)c2sccn12", "note": "(centres unmarked) [CBK282236]", "% of control remaining": 133.217}, {"smiles": "Cc1cc(N2C(=O)c3ccc(Oc4ccc5c(c4)C(=O)N(c4cc(C)on4)C5=O)cc3C2=O)no1", "note": "[CBK266463]", "% of control remaining": 148.534}, {"smiles": "c1cncc(-c2nccnc2N2CCN(c3ccncc3)CC2)c1", "note": "[CBK036965]", "% of control remaining": 247.774}, {"smiles": "O=C(NCCn1cccn1)N1CCCN(Cc2ccncc2)CC1", "note": "[CBK307129]", "% of control remaining": 136.309}, {"smiles": "Cn1cc(CCNC(=O)Nc2ccc(N3CCCC3)nc2)cn1", "note": "[CBK305659]", "% of control remaining": 93.7345}, {"smiles": "CC(=C\\C(=O)O)/C(=C/c1ccc2ccccc2n1)C(=O)O", "note": "[CBK278294N]", "% of control remaining": 100}, {"smiles": "Cc1ccc2c(c1)C(C[C@H]1CN(C(=O)C3CCCC3)CC[C@H]1CC(=O)O)=NCC2", "note": "[CBK289163]", "% of control remaining": 143.497}, {"smiles": "O=S(=O)(c1ccc2nc(-c3ccccc3)c(-c3ccc(O)cc3)nc2c1)c1ccc2nc(-c3ccccc3)c(-c3ccc(O)cc3)nc2c1", "note": "[CBK261148]", "% of control remaining": 100.734}, {"smiles": "OCCN(CCO)c1cncc(-c2cccs2)n1", "note": "[CBK065766]", "% of control remaining": 182.524}, {"smiles": "O=C(c1cccs1)N1C[C@@H]2C[C@H](C1)c1c(-c3cncnc3)ccc(=O)n1C2", "note": "[CBK289194]", "% of control remaining": 127.396}, {"smiles": "COC(=O)Cc1ccc(NC(=S)Nc2ccc(N3CCOCC3)cc2)cc1", "note": "[CBK267211]", "% of control remaining": 158.193}, {"smiles": "CC1CCN(c2ccc(C(C)NC(=O)Cn3cccn3)cc2)CC1", "note": "(centres unmarked) [CBK281725]", "% of control remaining": 142.694}, {"smiles": "COc1c(C)cc(-c2[nH]c(C)nc2C)cc1C", "note": "[CBK306941]", "% of control remaining": 135.439}, {"smiles": "O=C(O)CSc1nnc(-c2ccncc2)n1-c1ccc(Cl)cc1", "note": "[CBK266686]", "% of control remaining": 107.94}, {"smiles": "O=C(NCc1nnc(-c2cccs2)o1)C1(c2ccccc2F)CC1", "note": "[CBK284637]", "% of control remaining": 146.831}, {"smiles": "O=[N+]([O-])c1ccccc1/C=C/CN1CCN(C/C=C/c2ccccc2)CC1", "note": "[CBK261864]", "% of control remaining": 100}, {"smiles": "CC(NC(=O)C1(Cn2ccnc2)CC1)c1cccnc1", "note": "(centres unmarked) [CBK306812]", "% of control remaining": 129.543}, {"smiles": "CCn1cc(C(=O)NN)c(=O)c2cc(F)c(N3CCCCCC3)cc21", "note": "[CBK307145]", "% of control remaining": 110.313}, {"smiles": "O=C(Cc1ccc(-c2ccccc2)cc1)N1CCc2nc3ccccc3c(=O)n2CC1", "note": "[CBK286312]", "% of control remaining": 111.434}, {"smiles": "CCCC(=O)Nc1ccc(C(=O)O)cc1NC(=O)CCC", "note": "[CBK286939]", "% of control remaining": 143.912}, {"smiles": "CN1CCN(c2ccccc2NC(=S)NC(=O)c2ccco2)CC1", "note": "[CBK267909]", "% of control remaining": 121.441}, {"smiles": "CN(C(=O)C1CCc2nn(C)c(=O)n2C1)C1Cc2ccccc2C1", "note": "(centres unmarked) [CBK307108]", "% of control remaining": 113.959}, {"smiles": "CC(=O)c1ccc(CN2CCCN(S(=O)(=O)c3ccc(C(=O)c4ccccc4)cc3)CC2)cc1", "note": "[CBK062764]", "% of control remaining": 94.1776}, {"smiles": "CCCC1=NN=C(c2cc(C(F)(F)F)ccc2C(F)(F)F)C1C(=O)OCC", "note": "(centres unmarked) [CBK103527]", "% of control remaining": 90.4763}, {"smiles": "O=C(O)c1ccc(/C=N/NC(=O)C2COc3ccccc3O2)cc1", "note": "(centres unmarked) [CBK261481]", "% of control remaining": 100}, {"smiles": "COC(C)CN(C)C(=O)c1cc2cc(C)ccc2nc1C", "note": "(centres unmarked) [CBK282036]", "% of control remaining": 131.837}, {"smiles": "Cc1oc2c(c1CC(=O)N(C)CCN(C)C)C(=O)CC(C)(C)C2", "note": "[CBK282171]", "% of control remaining": 109.493}, {"smiles": "CCOC(=O)c1cn([C@H](CO)CCSC)cc(Oc2ccccc2)c1=O", "note": "[CBK307349]", "% of control remaining": 126.916}, {"smiles": "O=C(O)CCC(=O)NCc1ccc2c(c1)OCO2", "note": "[CBK286930]", "% of control remaining": 156.806}, {"smiles": "COc1ccc(C2CCN(CC(=O)N3CCCC3)CC2)cc1", "note": "[CBK283561]", "% of control remaining": 101.361}, {"smiles": "Cc1nn(CCCC(=O)Nc2sc3c(c2C#N)CCC(C(C)(C)C)C3)c(C)c1[N+](=O)[O-]", "note": "(centres unmarked) [CBK268982]", "% of control remaining": 89.782}, {"smiles": "COCCNC(=O)[C@@H](C)C1CC[C@@]2(C)CC[C@H](NS(C)(=O)=O)[C@@H](C)[C@@H]2[C@H]1O", "note": "(some centres unmarked) [CBK289457]", "% of control remaining": 100.572}, {"smiles": "CCCCNC(=O)c1ccc2nc(CC)c(N(C)CCC(C)C)n2c1", "note": "[CBK145477]", "% of control remaining": 95.1597}, {"smiles": "O=C(CN1CCN(c2ccccc2)CC1)Nc1ccc([N+](=O)[O-])cc1C(=O)c1ccccc1", "note": "[CBK265799]", "% of control remaining": 116.842}, {"smiles": "O=C(NCc1ccccn1)c1ccc(NS(=O)(=O)c2cccc(Cl)c2)cc1", "note": "[CBK267249]", "% of control remaining": 93.5625}, {"smiles": "O=C(CN1CCC(c2cncc(-c3cccc(C(F)(F)F)c3)n2)CC1)N1CCCC1", "note": "[CBK286152]", "% of control remaining": 103.782}, {"smiles": "O/N=C1/CCCCCC1NO", "note": "(centres unmarked) [CBK264368A]", "% of control remaining": 128.092}, {"smiles": "COc1ncc(-c2cncc(N3CCN(c4ccc(OC)c(OC)c4)CC3)n2)c(OC)n1", "note": "[CBK065169]", "% of control remaining": 130.018}, {"smiles": "CC(C)CN1CC(C(=O)N(C)CC2OCCc3ccccc32)CC1=O", "note": "(centres unmarked) [CBK282093]", "% of control remaining": 135.72}, {"smiles": "CCCC(=O)NCCn1ncc(-c2ccncc2)c1C1CC1", "note": "[CBK282116]", "% of control remaining": 153.605}, {"smiles": "CC(=O)N(C)c1nc(-c2cccc(N(C)C)c2)ccc1C(=O)N(C)C", "note": "[CBK076555]", "% of control remaining": 154.464}, {"smiles": "COc1cccc(Nc2cc(-c3ccco3)ncn2)c1", "note": "[CBK090740]", "% of control remaining": 91.8039}, {"smiles": "Cc1cnc2c(c1)cc(C1CCOCC1)n2CC(=O)NC1CCCC1", "note": "[CBK284755]", "% of control remaining": 94.3647}, {"smiles": "O=C(Nc1ccccc1)C(N1CCCCC1)N1CCCCC1", "note": "[CBK263425]", "% of control remaining": 121.925}, {"smiles": "CN(C)CCn1c(=O)[nH]c2ncc(-c3cc(C(F)(F)F)cc(C(F)(F)F)c3)nc21", "note": "[CBK065028]", "% of control remaining": 146.227}, {"smiles": "CC1CCCN(Cc2c(C3CCOCC3)[nH]c3ncccc23)C1", "note": "(centres unmarked) [CBK284687]", "% of control remaining": 134.353}, {"smiles": "COc1cc(Br)c(/C=C(/C#N)C(=O)Nc2ccc(O)cc2)cc1OC", "note": "[CBK262733]", "% of control remaining": 100}, {"smiles": "CC(Oc1ccc(-c2ccccc2)cc1)C(=O)Nc1ccc(S(N)(=O)=O)cc1", "note": "(centres unmarked) [CBK267979]", "% of control remaining": 118.625}, {"smiles": "COc1cc(CNc2ncc(-c3ccc(N4CCOCC4)cc3)n3ccnc23)cc(OC)c1OC", "note": "[CBK091219]", "% of control remaining": 136.233}, {"smiles": "O=C(NCC1Cc2ccccc2O1)c1cccc(NC(=O)c2ccco2)c1", "note": "(centres unmarked) [CBK298302]", "% of control remaining": 158.441}, {"smiles": "O=C(NC1(c2ccc(F)cc2)CCCC1)c1cnn2cccnc12", "note": "[CBK283612]", "% of control remaining": 116.843}, {"smiles": "COc1cc(Nc2cncc(-c3ccc(N)cc3)n2)cc(OC)c1OC", "note": "[CBK065642]", "% of control remaining": 110.363}, {"smiles": "O=C(O)c1cccc(N2C(=O)C3C4C=CC(C3C2=O)C2C(=O)N(c3cccc(C(=O)O)c3)C(=O)C42)c1", "note": "(centres unmarked) [CBK261495]", "% of control remaining": 86.4331}, {"smiles": "CCC(CN1CCOCC1)NC(=O)Cc1coc2cc(C)cc(C)c12", "note": "(centres unmarked) [CBK282812]", "% of control remaining": 131.456}, {"smiles": "Cc1ccc(S(=O)(=O)N2CCOCC2)cc1C(=O)Oc1cccc2cccnc12", "note": "[CBK269726]", "% of control remaining": 157.933}, {"smiles": "CC(NC(=O)CC1(N2CCOCC2)CCCC1)c1cccc(C#N)c1", "note": "(centres unmarked) [CBK305320]", "% of control remaining": 108.625}, {"smiles": "CCOC(=O)Cn1nc(CC)n2c(cc3sccc32)c1=O", "note": "[CBK284073]", "% of control remaining": 156.143}, {"smiles": "Brc1ccc(CN2CCN(Cc3c[nH]c4ccccc34)CC2)cc1", "note": "[CBK027622]", "% of control remaining": 100.256}, {"smiles": "CC(C)NCC(O)COCc1ccc(Cl)cc1", "note": "(centres unmarked) [CBK261406C]", "% of control remaining": 109.734}, {"smiles": "CN(CC(=O)NNC(=O)c1ccc(C(C)(C)C)cc1)S(=O)(=O)c1cc(Cl)ccc1Cl", "note": "[CBK267376]", "% of control remaining": 127.916}, {"smiles": "Cn1c(=O)c2c(nc(CN3CCCCC3)n2CCCO)n(C)c1=O", "note": "[CBK269280]", "% of control remaining": 111.846}, {"smiles": "Cc1ccc(S(=O)(=O)Nc2nc(C)cs2)cc1", "note": "[CBK102326]", "% of control remaining": 142.561}, {"smiles": "NS(=O)(=O)c1ccc(NC(=O)CSc2cccc3ccccc23)cc1", "note": "[CBK268987]", "% of control remaining": 137.448}, {"smiles": "CCCCC(c1cccnc1)N(C)C(=O)c1cccn(C)c1=O", "note": "(centres unmarked) [CBK307496]", "% of control remaining": 117.137}, {"smiles": "COc1cc(/C=N/NC(=O)c2ccc([N+](=O)[O-])cc2)ccc1OC(C)=O", "note": "[CBK261348]", "% of control remaining": 120.426}, {"smiles": "NC(=O)CCN1CCCC2(CCN(C(=O)Cc3c[nH]c4ccccc34)C2)C1", "note": "(centres unmarked) [CBK132041]", "% of control remaining": 115.703}, {"smiles": "Cc1cc2c(cc1C)OC1(C=C2)CCN(C(=O)N2CCOCC2)CC1", "note": "[CBK285314]", "% of control remaining": 115.503}, {"smiles": "CC(=O)NCCc1nc2cc(NC(=O)Nc3ccccc3)ccc2n1C", "note": "[CBK268216]", "% of control remaining": 109.647}, {"smiles": "COC(=O)[C@@H](C)NC(=O)[C@H]1CN(C(=O)c2cccnc2)CCN1C(=O)c1cccs1", "note": "[CBK289628]", "% of control remaining": 100.37}, {"smiles": "CCCCCn1c(=O)c(C(=O)Nc2cccc(O)c2)c(O)c2ccccc21", "note": "[CBK291189]", "% of control remaining": 106.839}, {"smiles": "CC(=O)NC(c1nccs1)C1CCN(C(=O)C(C)(C)C)CC1", "note": "(centres unmarked) [CBK284677]", "% of control remaining": 115.04}, {"smiles": "CCOC(=O)c1sc2nc(C(C)N3CCCCC3)[nH]c(=O)c2c1C", "note": "(centres unmarked) [CBK306078]", "% of control remaining": 98.0555}, {"smiles": "OCCNc1nc(Cl)nc(Nc2nc(-c3ccccc3)cs2)n1", "note": "[CBK261381]", "% of control remaining": 100}, {"smiles": "N#CCCn1cc(C(=O)N2CCCCC2)c(-c2cccc(Cl)c2)n1", "note": "[CBK306209]", "% of control remaining": 136.856}, {"smiles": "CCN1CCC2(CC1)NC(=O)Cc1ccccc12", "note": "[CBK039810]", "% of control remaining": 96.9151}]}]}
